## Library screening results

Source: ChEMBL document CHEMBL3988442, “University of Dundee, Small-Polar-MMV Screening Library” (2021).

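Viability assay of Plasmodium falciparum sporozoites; the read-out is not stated. The concentration is filed as 10 mM, unlikely as a test dose, so the dose is not known. The record gives no direction; compounds that gave an IC50 in retests scored well above the rest, so higher reads as lower viability. Strong results were mostly tested again. Of about 34,000 compounds tested this way, about 280 (0.84%) reached 50% or more in at least one test.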

Results are given as percent effect.
How 0% and 100% were set is not recorded. Most values in the screen are low, and negative values occur.
This is an unselected part of the compounds tested.
Two or more numbers in one place are separate tests of the same structure; such repeats can differ widely.

{"compound": "O=C(CSCc1ccccn1)N(Cc1ccsc1)C1CC1", "effect": "15.37 & 3.366"}
{"compound": "Cc1cc(-c2cnc(NC3CCCCC3)nc2-c2ccco2)on1", "effect": -4.383}
{"compound": "OC(CN(Cc1ccccc1)Cc1cccnc1)c1ccco1", "stereo": "stereo not drawn", "effect": -5.895}
{"compound": "CCn1c(CN2CCC(O)(c3ccc4c(c3)OCO4)CC2)cnc1SC.O=C(O)CC(O)(CC(=O)O)C(=O)O", "effect": 6.734}
{"compound": "[H][C@@]12CN(c3nccs3)C[C@]1([H])N(Cc1ccccc1OC)C(=O)O2", "effect": 15.45}
{"compound": "Fc1ccccc1OCCc1cc(C2CCNC2)n[nH]1", "stereo": "stereo not drawn", "effect": "14.09 & 33.36 & 26.04"}
{"compound": "CCc1nc(CN(C)C2CCN(Cc3cnc(C)cn3)C2)no1", "stereo": "stereo not drawn", "effect": 14.88}
{"compound": "COCCn1cnc2ccc(NC(=O)c3ccc(OC)cc3)cc2c1=O", "effect": -19.51}
{"compound": "Cc1ccccc1CS(=O)(=O)NCCCN1CCCCC1", "effect": -5.365}
{"compound": "CCCN(CCC)C(=O)CN(C)C1CCc2ccccc21", "stereo": "stereo not drawn", "effect": 12.02}
{"compound": "[H][C@@]12CCN(Cc3cc(C)on3)C[C@@]1([H])O[C@H](C)C2", "effect": -16.29}
{"compound": "[H][C@@]12CCNC[C@]1([H])N(C(=O)C1CCCC1)C2", "effect": -0.8554}
{"compound": "CS(=O)(=O)N1CCCC(Cc2ccnc3ccncc23)CC1", "stereo": "stereo not drawn", "effect": -7.655}
{"compound": "CN1CCN(C2CCN(c3ccnc(-c4ccccc4)n3)CC2)C1=O", "effect": "-12.56 & 9.01 & -14.11"}
{"compound": "Oc1cc(-c2ccccn2)nc(C2CCN(Cc3ccncc3)CC2)n1", "effect": -6.264}
{"compound": "CCc1ccc(S(=O)(=O)N2CCC3(CC(C(=O)NC)=NO3)C2)cc1", "stereo": "stereo not drawn", "effect": -2.125}
{"compound": "C/N=C1/c2cc3cc(OC)ccc3n2CCN1Cc1ccccc1.Cl", "effect": -14.74}
{"compound": "NCc1cccc(-c2cccnc2C(=O)NCCN2CCOCC2)c1", "effect": 4.371}
{"compound": "Cn1c(C2CC2)nc2c1CCN(Cc1nc3ccccc3s1)C2", "effect": "48.9 & 53.74"}
{"compound": "Cc1cccc(CN2CCc3onc(Cn4cccc4)c3C2)n1.O=C(O)C(F)(F)F", "effect": -2.946}
{"compound": "COCCN1CCCC(c2cncc(Oc3ccccc3OC)n2)C1", "stereo": "stereo not drawn", "effect": -1.652}
{"compound": "CC(C)NC(=O)N1CCC2(CC1)Cc1ccccc1CN(C)C2=O", "effect": 2.997}
{"compound": "COc1ccc2c(c1)CN(Cc1ccco1)C(=O)CCN2", "effect": -22.07}
{"compound": "Cc1cc(N2CCN(C(=O)c3cn(C)c4ccccc34)CC2)nc(C)n1", "effect": "5.774 & 12.29"}
{"compound": "Cc1nc(C(C)C)sc1C(=O)NCCNc1ncccc1C#N", "effect": -5.602}
{"compound": "CS(=O)(=O)CC(=O)N(CCN1CCOCC1)Cc1ccco1", "effect": -7.807}
{"compound": "COc1ccc(CN2CCOC(CCc3ccnc(N)c3)C2)cc1", "stereo": "stereo not drawn", "effect": 5.188}
{"compound": "Cc1cnc(CC2COCCN(C(=O)c3cncnc3)C2)cn1", "stereo": "stereo not drawn", "effect": 1.292}
{"compound": "CNc1cc(C)nc(N2C[C@@H](C(=O)O)[C@H](C3CC3)C2)n1", "effect": "73.63 & 80.29 & 69.7"}
{"compound": "COC(=O)CCNC(=O)c1nnn(-c2ccc(C)cc2)c1C1CC1", "effect": 4.247}
{"compound": "N#CC1C(=O)Nc2c(cnn2C2CCCC2)C12CCCC2", "stereo": "stereo not drawn", "effect": -4.561}
{"compound": "CC(C)Cc1nc(CN2CC(=O)N(C)c3ccccc3C2=O)no1", "effect": -1.424}
{"compound": "COC(=O)CC1CCN(C(=O)Nc2ccc(-c3ccn[nH]3)cc2)C1", "stereo": "stereo not drawn", "effect": "84.64 & 84.71 & 100.4"}
{"compound": "Cc1cc(C)n(C2CCN(S(C)(=O)=O)CC2)n1", "effect": 3.7}
{"compound": "OC(CN1CCN(Cc2nnc(C3CC3)o2)CC1)c1ccccc1", "stereo": "stereo not drawn", "effect": -2.549}
{"compound": "c1ccc(-n2cc(CN3CCCCC3Cn3cncn3)nn2)cc1", "stereo": "stereo not drawn", "effect": -2.894}
{"compound": "COC1CCCN(Cc2cc(O)c3cc(C)cc(C)c3n2)C1", "stereo": "stereo not drawn", "effect": -10.69}
{"compound": "CC(=O)N1CCCN(C(=O)CCc2c(C)nc3ccnn3c2C)CC1", "effect": 7.451}
{"compound": "CCOC(=O)C1CC2(CCOCC2)N2CCC(=O)N12", "stereo": "stereo not drawn", "effect": -38.69}
{"compound": "CCN1CCN(C(=O)c2cccn2Cc2ccccc2)CC1", "effect": -0.2574}
{"compound": "CCn1cc(NC(=O)C2CCN(CC(=O)N3CCOCC3)CC2)cn1", "effect": 12.47}
{"compound": "Oc1nc(N2CCCC2)nc2c1CCN(Cc1cccnc1)CC2", "effect": -6.596}
{"compound": "CSCCC(=O)NS(=O)(=O)c1ccc2c(c1)OCCO2", "effect": -12.67}
{"compound": "Cn1cnc2c1C(COCC1CCOCC1)CN(C(=O)c1ccoc1)C2", "stereo": "stereo not drawn", "effect": 0.5767}
{"compound": "COCCNC(=O)Nc1ccc(-n2cncn2)c(F)c1", "effect": -3.792}
{"compound": "Cc1ccc2c(n1)N(CCn1cccn1)CCN(S(C)(=O)=O)C2.O=C(O)C(F)(F)F", "effect": 18.33}
{"compound": "COCCNc1nnc(-c2cnc(C)cn2)s1", "effect": -7.618}
{"compound": "CC(=O)c1ccc(S(=O)(=O)N2CCOC(Cn3ccnc3)C2)cc1", "stereo": "stereo not drawn", "effect": 9.492}
{"compound": "Cc1cc(-c2cnc(NCc3cccnc3)nc2C(C)(C)C)on1", "effect": -26.64}
{"compound": "Cc1cc(C2CCC2)nc(N2CCC3(CC2)OCCCC3O)n1", "stereo": "stereo not drawn", "effect": "4.236 & -19.97 & -19.94"}
{"compound": "CS(=O)(=O)N1CCN(Cc2cccs2)CC(C(N)=O)C1", "stereo": "stereo not drawn", "effect": -4.056}
{"compound": "CC(=O)NC1CCCN(C(=O)CNc2cccc(C)c2Cl)C1", "stereo": "stereo not drawn", "effect": -0.9989}
{"compound": "O=C(O)C(F)(F)F.[H][C@]12CCN(Cc3nccs3)C[C@@]1([H])OCCN(C(=O)c1ccco1)C2", "effect": 3.853}
{"compound": "Cc1nc(C(=O)NS(=O)(=O)c2cccc(C#N)c2)cs1", "effect": 8.996}
{"compound": "Cn1nc2c(cc1=O)CN(c1ncnc3sccc13)CC2", "effect": -7.953}
{"compound": "CCN(Cc1cccc(C(=O)Nc2c(C)cnn2C)c1)[C@H]1COC[C@@H]1O", "effect": -10.84}
{"compound": "CCS(=O)(=O)CC(=O)NC(C)c1ccc(F)cc1F", "stereo": "stereo not drawn", "effect": -32.08}

Once more, the final 5:

{"compound": "O=C(O)C(F)(F)F.[H][C@]12CCN(Cc3nccs3)C[C@@]1([H])OCCN(C(=O)c1ccco1)C2", "effect": 3.853}
{"compound": "Cc1nc(C(=O)NS(=O)(=O)c2cccc(C#N)c2)cs1", "effect": 8.996}
{"compound": "Cn1nc2c(cc1=O)CN(c1ncnc3sccc13)CC2", "effect": -7.953}
{"compound": "CCN(Cc1cccc(C(=O)Nc2c(C)cnn2C)c1)[C@H]1COC[C@@H]1O", "effect": -10.84}
{"compound": "CCS(=O)(=O)CC(=O)NC(C)c1ccc(F)cc1F", "stereo": "stereo not drawn", "effect": -32.08}